Publication PMC5413510, “An Analysis of Trafficking Receptors Shows that CD44 and P-Selectin Glycoprotein Ligand-1 Collectively Control the Migration of Activated Human T-Cells” (Frontiers in Immunology, 2017)
Results are given in words; binding and its absence hold for the method and conditions named. Some entries that bind do so weakly or less than the wild type. For some assays here: Tags and fused reporters may be left off the sequences shown.

The chains behind the UniProt entries cited, without tags or fusion partners. Where a name states a change or a piece, a line headed by the entry shows the natural chain unless it says otherwise. A line that says so, or that is headed by a name, gives the form on record, which may keep a tag or linker.
CD44s (standard form of CD44) from activated human T-cells (human (endogenous in activated T-cells)) (P16070, form named): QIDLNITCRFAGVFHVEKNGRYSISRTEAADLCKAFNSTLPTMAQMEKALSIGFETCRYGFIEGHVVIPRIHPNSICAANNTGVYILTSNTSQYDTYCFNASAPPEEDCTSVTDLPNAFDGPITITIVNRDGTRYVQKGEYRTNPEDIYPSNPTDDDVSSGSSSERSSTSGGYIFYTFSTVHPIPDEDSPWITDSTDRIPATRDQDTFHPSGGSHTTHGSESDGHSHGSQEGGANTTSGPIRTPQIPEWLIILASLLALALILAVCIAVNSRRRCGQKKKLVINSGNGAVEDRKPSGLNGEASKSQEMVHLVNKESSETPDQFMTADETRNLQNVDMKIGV

B1: recombinant mouse E-selectin/CD62E Fc chimera (E-Ig) (Fc fusion, UniProt Q00690 22-557, looked up)
chain: WYYNASSELMTYDEASAYCQRDYTHLVAIQNKEEINYLNSNLKHSPSYYWIGIRKVNNVWIWVGTGKPLTEEAQNWAPGEPNNKQRNEDCVEIYIQRTKDSGMWNDERCNKKKLALCYTASCTNASCSGHGECIETINSYTCKCHPGFLGPNCEQAVTCKPQEHPDYGSLNCSHPFGPFSYNSSCSFGCKRGYLPSSMETTVRCTSSGEWSAPAPACHVVECEALTHPAHGIRKCSSNPGSYPWNTTCTFDCVEGYRRVGAQNLQCTSSGIWDNETPSCKAVTCDAIPQPQNGFVSCSHSTAGELAFKSSCNFTCEQSFTLQGPAQVECSAQGQWTPQIPVCKAVQCEALSAPQQGNMKCLPSASGPFQNGSSCEFSCEEGFELKGSRRLQCGPRGEWDSKKPTCSAVKCDDVPRPQNGVMECAHATTGEFTYKSSCAFQCNEGFSLHGSAQLECTSQGKWTQEVPSCQVVQCPSLDVPGKMNMSCSGTAVFGTVCEFTCPDDWTLNGSAVLTCGATGRWSGMPPTCEAPVSPTRP
notes: E-selectin (CD62E), mouse; Mouse is named only in the flow cytometry methods; also called E-selectin-hIg chimera; recombinant E-selectin–Ig chimera; source: bought: R&D
B2: E-selectin on CHO cells expressing E-selectin (CHO-E) (receptor, UniProt P16581 22-610)
chain: WSYNTSTEAMTYDEASAYCQQRYTHLVAIQNKEEIEYLNSILSYSPSYYWIGIRKVNNVWVWVGTQKPLTEEAKNWAPGEPNNRQKDEDCVEIYIKREKDVGMWNDERCSKKKLALCYTAACTNTSCSGHGECVETINNYTCKCDPGFSGLKCEQIVNCTALESPEHGSLVCSHPLGNFSYNSSCSISCDRGYLPSSMETMQCMSSGEWSAPIPACNVVECDAVTNPANGFVECFQNPGSFPWNTTCTFDCEEGFELMGAQSLQCTSSGNWDNEKPTCKAVTCRAVRQPQNGSVRCSHSPAGEFTFKSSCNFTCEEGFMLQGPAQVECTTQGQWTQQIPVCEAFQCTALSNPERGYMNCLPSASGSFRYGSSCEFSCEQGFVLKGSKRLQCGPTGEWDNEKPTCEAVRCDAVHQPPKGLVRCAHSPIGEFTYKSSCAFSCEEGFELHGSTQLECTSQGQWTEEVPSCQVVKCSSLAVPGKINMSCSGEPVFGTVCKFACPEGWTLNGSAARTCGATGHWSGLLPTCEAPTESNIPLVAGLSAAGLSLLTLAPFLLWLRKCLRKAKKFVPASSCQSLESDGSYQKPSYIL

Experiments:
[1] = target: T1, P-selectin glycoprotein ligand-1 (PSGL-1) from activated human T-cells (human (endogenous in activated T-cells)) (UniProt Q14242); assay: SPR; BIAcore CM5 chip; CD44 and PSGL-1 captured from activated T-cell lysate by immobilised mAbs Hermes-3 and KPL-1; 100 nM E-Ig injected at 20 ul/min with 1 mM Ca2+ or 5 mM EDTA at 50 mM NaCl; isotype control subtracted; both purified
T1 sequence (chain, O-glycans): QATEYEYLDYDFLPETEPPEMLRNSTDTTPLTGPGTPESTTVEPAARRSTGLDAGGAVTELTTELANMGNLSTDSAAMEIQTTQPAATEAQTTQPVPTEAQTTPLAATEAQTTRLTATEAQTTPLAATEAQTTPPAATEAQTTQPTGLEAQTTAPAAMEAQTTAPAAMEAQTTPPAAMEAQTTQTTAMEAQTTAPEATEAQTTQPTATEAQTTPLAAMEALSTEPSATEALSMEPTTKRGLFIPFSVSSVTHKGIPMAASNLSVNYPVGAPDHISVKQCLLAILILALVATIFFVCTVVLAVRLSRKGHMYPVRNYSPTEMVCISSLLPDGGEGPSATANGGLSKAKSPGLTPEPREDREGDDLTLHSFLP

[2] = target: CD44s (standard form of CD44) from activated human T-cells (human (endogenous in activated T-cells)) (UniProt P16070); assay: far-Western, overlay or dot blot; ligand immuno-purified from T-cells, resolved for Western blot and stained with E-Ig; some samples treated beforehand with PNGaseF, sialidase or OSGE; CD44v6, CD44v10 and CD44s purified one after the other from lysates at 24 h, 48 h and Day 5 (binding of CD44s first detected at 48 h, stronger at Day 5); both purified
[3] = target: T2, P-selectin glycoprotein ligand-1 (PSGL-1) from T-cells of psoriatic patients (human (endogenous in T-cells of psoriatic patients)) (UniProt Q14242); assay: as above
T2 sequence: T1 sequence (chain, O-glycans)

[4] = target: T1, P-selectin glycoprotein ligand-1 (PSGL-1) from activated human T-cells (human (endogenous in activated T-cells)); assay: as above
[5] = target: T1, P-selectin glycoprotein ligand-1 (PSGL-1) from activated human T-cells (human (endogenous in activated T-cells)); assay: blot rolling assay; immuno-purified CD44/HCELL or PSGL-1 resolved by SDS-PAGE and blotted; CHO-E cells perfused over the blot in HBSS, 2 mM Ca2+, 10% glycerol at 0.5 dyn cm^-2; 5 mM EDTA as control of specificity; only the target purified

Binder	binding [1]	binding [2]	binding [3]	binding [4]	binding [5]
B1	binds	binds	binds	binds	
B2					binds
